Measured values published in article PMC8437041.
Read-outs that look alike come from different tables or passages of the source. Results are given in words; binding and its absence hold for the method and conditions named. Binding seen in cells or lysates may run through a third protein. Some entries that bind do so weakly or less than the wild type. For some assays here: Tags and fused reporters may be left off the sequences shown.

Legend:
Test in all cases: co-IP
[1] = biological target: T1, Flag-tagged WT1-associated protein (WTAP), from pFlag-WTAP (UniProt Q15007)
T1 sequence: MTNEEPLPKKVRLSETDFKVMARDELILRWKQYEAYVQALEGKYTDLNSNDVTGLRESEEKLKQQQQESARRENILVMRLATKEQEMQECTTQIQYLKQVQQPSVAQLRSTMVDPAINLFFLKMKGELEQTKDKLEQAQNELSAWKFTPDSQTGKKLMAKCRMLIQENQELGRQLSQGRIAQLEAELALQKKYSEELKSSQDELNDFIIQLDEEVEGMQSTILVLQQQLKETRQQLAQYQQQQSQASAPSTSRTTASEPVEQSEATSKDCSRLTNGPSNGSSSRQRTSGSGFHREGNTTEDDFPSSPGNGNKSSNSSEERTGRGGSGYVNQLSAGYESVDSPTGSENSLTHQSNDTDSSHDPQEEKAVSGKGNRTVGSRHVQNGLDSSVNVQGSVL

[2] = biological target: Flag-tagged methyltransferase-like 3 (METTL3), from pFlag-METTL3 (UniProt Q86U44)
[3] = biological target: T2, METTL14, from pMETTL14 (UniProt Q9HCE5)
T2 sequence: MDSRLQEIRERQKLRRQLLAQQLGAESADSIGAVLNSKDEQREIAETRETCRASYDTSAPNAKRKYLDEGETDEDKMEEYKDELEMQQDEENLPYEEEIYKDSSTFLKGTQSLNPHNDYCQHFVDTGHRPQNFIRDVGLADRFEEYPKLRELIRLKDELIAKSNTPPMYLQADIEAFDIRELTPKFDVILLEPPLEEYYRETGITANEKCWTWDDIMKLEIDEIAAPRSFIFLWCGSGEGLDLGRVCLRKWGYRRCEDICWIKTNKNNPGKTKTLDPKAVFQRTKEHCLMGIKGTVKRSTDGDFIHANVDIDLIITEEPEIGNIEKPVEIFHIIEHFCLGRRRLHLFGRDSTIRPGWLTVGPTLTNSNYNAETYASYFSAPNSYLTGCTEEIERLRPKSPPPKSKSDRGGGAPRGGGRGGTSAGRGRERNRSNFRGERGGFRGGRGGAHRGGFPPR

[4] = biological target: HA-tagged SARS-CoV-2 RNA-dependent RNA polymerase (RdRp), from pHA-RdRp (SARS-CoV-2) (UniProt P0DTD1)
[5] = biological target: HA-tagged SARS-CoV-2 RNA-dependent RNA polymerase (RdRp), from pHA-RdRp (SARS-CoV-2) (UniProt P0DTD1); remark: listed apart in the source

Molecule: HA-tagged SARS-CoV-2 RNA-dependent RNA polymerase (RdRp), from pHA-RdRp (from UniProt P0DTD1 4393-5324) (enzyme)
- binding [1]: binds
- binding [2]: binds
- binding [3]: binds

Molecule: Flag-tagged methyltransferase-like 3 (METTL3), from pFlag-METTL3 (from UniProt Q86U44 1-580) (enzyme)
- binding [4]: binds

B1: METTL14, from pMETTL14 (protein, UniProt Q9HCE5 1-456)
chain: MDSRLQEIRERQKLRRQLLAQQLGAESADSIGAVLNSKDEQREIAETRETCRASYDTSAPNAKRKYLDEGETDEDKMEEYKDELEMQQDEENLPYEEEIYKDSSTFLKGTQSLNPHNDYCQHFVDTGHRPQNFIRDVGLADRFEEYPKLRELIRLKDELIAKSNTPPMYLQADIEAFDIRELTPKFDVILLEPPLEEYYRETGITANEKCWTWDDIMKLEIDEIAAPRSFIFLWCGSGEGLDLGRVCLRKWGYRRCEDICWIKTNKNNPGKTKTLDPKAVFQRTKEHCLMGIKGTVKRSTDGDFIHANVDIDLIITEEPEIGNIEKPVEIFHIIEHFCLGRRRLHLFGRDSTIRPGWLTVGPTLTNSNYNAETYASYFSAPNSYLTGCTEEIERLRPKSPPPKSKSDRGGGAPRGGGRGGTSAGRGRERNRSNFRGERGGFRGGRGGAHRGGFPPR
- binding [5]: binds
